# Measurements published in the supplement of paper PMC6445147.
# Single values of this data set are uncertain.
# B1: human tRNA-Pro; a variant is named by its letters at N, in order (parent)
# chain: GGCTCGTTGGTCTAGNGGTATGATTCTCGCTTAGGGTGCGAGAGGTCCCGGGTTCNNATCCCGGACGAGCCC
# Variants of: B1
# Assay: tRNA 3' processing efficiency (processed reads / all reads, maximum-likelihood estimate) (fraction); higher = more efficient 3' processing
# Settings: HEK293T; construct: no Pol-II promoter ((-)CMV library)
row,Variant,tRNA 3' processing efficiency
1,CAA T8C G9A A20T,0.62
2,GAA G17C G18C A20G C55T,0.4
3,CAA G15C T19A A58T,0.2
4,GAA G9T A14G G18A T19G A58G T59C,0.4
5,GAA T8C A33G A58C,0.62
6,GAA G15C T53G G63A,0.14
7,CAA G9A T19A T59C,0.25
8,TAA T8C A14C G17C T19G A20G A58C,0.38
9,AAA G18A T19C A20C A58T T59A,0.25
10,AAA T8C A14G T59A,0.25
11,GAA G51T A58T,0.25
12,GAA T8A A14T G17T G18A A58T T59A,0.4
13,GAA G9C A14G G17T A20T T59A,0.13
14,TAA G15C G17C A58G T59G,0.2
15,AAA T8C A58T T59A,0.33
16,GAA G15A T19A A58C T59A,0.17
17,GAA G15A A20G T54A C55G A58G G63T,0.4
18,CAA G9C A20T C55G,0.5
19,GAA T8A G15A G18C A58T,0.25
20,GAA G51A C55T,0.13
21,GAA T8C A14C T19C A58G T59G,0.25
22,GAA G15A G18A A20T T59G,0.57
23,CAA T8C G15C C55T A58G,0.25
24,GAA G15A A33G A58G,0.2

row,Variant,tRNA 3' processing efficiency
1,GAA G15A A33G A58T,0.25
2,TAA G9A T19A T53A,0.33
3,CAA G15T G50A T59G,0.62
4,AAA G9A T53A,0.5
5,GAA T8C A14G A20T T59C,0.25
6,AAA G17C A58G T59G,0.2
7,GAA G36C T59C,0.2
8,GAA T8C G9A A58G,0.2
9,GAA G9T G51T,0.25
10,GAA G9T G51A,0.5
11,CAA G15C A58T T59G,0.13
12,CAA G15C A58T T59C,0.43
13,GAA G18T C49G,0.25
14,CAA G15A T54A A58T,0.73
15,AAA T8C G9T T19A A58T,0.4
16,GAA G15C G17A G18T A20G T53A,0.2
17,AAA T8A G18C C55T T59G,0.2
18,CAA T8C A14T A58G,0.25
19,AAA G15A T53A A58G,0.33
20,GAA G9C A14T G15A G17C A58G,0.14
21,GAA G15C G18A T19C A58T,0.4
22,TAA G17T A58G T59A,0.4
23,GAA T8C A14C T53G A58T T59G,0.56
24,GAA G15C T19A T53G,0.25

row,Variant,tRNA 3' processing efficiency
1,GAA G9A G40A,0.5
2,GAA T8C G9A T19A A58T,0.5
3,GAA G51A T59G,0.57
4,GAA G15A G17C A58T T59A,0.19
5,TAA G15A A58G T59A,0.57
6,TAA G38A T59A,0.25
7,GAA G9A G15A G17T T59C,0.57
8,AAA G9T A20T C55T A58T,0.2
9,CAA T8A G9T G15C T53A,0.29
10,AAA T8C G9A G15C A58T,0.13
11,GAA G50A A58T,0.29
12,GAA G17T G50A A58G T59G,0.13
13,CAA G50T,0.11
14,GAA G18A A20C T59G,0.5
15,GAA G9A T19G T53G A58G T59G,0.83
16,AAA T8C G9A A58C T59G,0.77
17,CAA G9T A58C T59G,0.33
18,CAA G15A A58G T59G,0.29
19,GAA T8C A14G T53A A58G T59G,0.2
20,GAA G36A T53G A58G T59G,0.25
21,GAA G17A A20T T53G A58T,0.5
22,GAA T8C G15C G18A C55T T59G,0.44
23,GAA G15C G17T T19C A58C,0.4
24,GAA G18T T19C A58T,0.33

# Retrieved one by one from above:
row,Variant,tRNA 3' processing efficiency
21,GAA G17A A20T T53G A58T,0.5
7,GAA G9A G15A G17T T59C,0.57
8,AAA G9T A20T C55T A58T,0.2
5,TAA G15A A58G T59A,0.57
2,GAA T8C G9A T19A A58T,0.5

# The list goes on.

row,Variant,tRNA 3' processing efficiency
1,GAA T8A A14C G15A G18A T19A A20C A58T,0.25
2,TAA G18A A20C C55T,0.14
3,GAA T8C A14G A58C T59C,0.6
4,GAA G51A A58T,0.33
5,AAA G9A G15T A58C,0.57
6,GAA G15A A58C T59C,0.2
7,GAA G15A A58C T59G,0.25
8,GAA G15A T19G A20T T59C,0.25
9,GAA G9A G18A T53A T59A,0.43
10,GAA T8C A14T A58G T59G,0.5
11,CAA G15C T53A A58G,0.4
12,CAA G9T A58T T59G,0.25
13,AAA G17T G18C A58T T59G,0.38
14,TAA G50T,0.38
15,GAA G17T A20T A58T C62T,0.13
16,GAA G15T G17C A20C T59G,0.33
17,GAA G15C T19A A58G T59G,0.25
18,CAA G15C A20T A23T T54A,0.25
19,AAA G51A T53G,0.4
20,TAA G15C T19C A58T T59A,0.14
21,GAA T8C G9T A20G T59A,0.17
22,TAA G9A T19G C55T,0.29
23,GAA G9A G51A A58T,0.25
24,GAA G18T G51A A58T,0.73

row,Variant,tRNA 3' processing efficiency
1,GAA G9T G15C A58G T59G,0.25
2,CAA G9C G15C G17C C55T,0.6
3,TAA G9A A58G T59G,0.2
4,CAA G15C A58G T59G,0.25
5,CAA G9A A58T T59G,0.4
6,GAA T8C G15A G17A T19C T59G,0.4
7,CAA T8C G51A T59A,0.38
8,GAA G17T T19C C55T T59G,0.33
9,TAA G9T T19C T54A,0.5
10,GAA G9A G15T T53A T59G,0.33
11,TAA G15A A33G A58T,0.25
12,GAA T8C A33G,0.4
13,GAA G15A G17C T19A A58T,0.25
14,CAA G50T C55T,0.08
15,GAA G15C G34A A58T T59A,0.25
16,GAA G15A G17A A58G T59A,0.5
17,GAA G9A G17T T59C,0.4
18,GAA G9A G15C T19C T53G,0.4
19,GAA G50C,0.23
20,GAA G18T T46A T53A,0.57
21,GAA G9T G15A G17T T54A,0.62
22,GAA T8C G15A T19A A20T T54G,0.33
23,GAA G9T T19A A20T A58T T59G,0.25
24,CAA G18C A20T T59A,0.4

# 3 successive entries out of the list so far:
row,Variant,tRNA 3' processing efficiency
20,GAA G18T T46A T53A,0.57
21,GAA G9T G15A G17T T54A,0.62
22,GAA T8C G15A T19A A20T T54G,0.33

# (next part)

row,Variant,tRNA 3' processing efficiency
1,GAA G17C A20G A58G T59G,0.2
2,GAA G44A T59C,0.4
3,GAA G9A G17C A20T G51A,0.2
4,CAA G15A T53A,0.56
5,GAA T8C A20G G50A,0.25
6,GAA T8C A14G G51A T59A,0.11
7,GAA G15A G17C A58C,0.33
8,GAA G15C T19A A20C T53A,0.25
9,GAA G9T G17C G18T T53G,0.5
10,CAA G51T,0.42
11,TAA G15C T19G T59A,0.2
12,GAA T8C G9A A14C G18A T19C A58C,0.17
13,GAA G51T T59G,0.2
14,GAA G17T G51C T59G,0.22
15,GAA G9A T19A A20G A58C,0.11
16,CAA G9T T19C C55T,0.17
17,GAA G17A T19A G51C T53A,0.6
18,GAA T8A A14C G15A G18C T53A A58T,0.2
19,GAA G18T A33G A58T,0.2
20,GAA G44T,0.25
21,TAA G18T T19G A20T C55T,0.57
22,TAA G15T T53A A58T,0.17
23,GAA G15A A20T G51A,0.25
24,GAA G15C T53A T59G,0.2

row,Variant,tRNA 3' processing efficiency
1,CAA T8C G9C G17C G18C,0.57
2,GAA T8A G17A G18C T53C,0.25
3,GAA T8C G9T A14T T59C,0.2
4,GAA G15A T19A A58G T59A,0.25
5,GAA G15A A33G T59G,0.5
6,CAA G15C T19G T59G,0.17
7,GAA G9A A58C T59C,0.29
8,TAA G51A T53A A58G,0.38
9,GAA G9T G15A C55G A58G,0.33
10,TAA G9A C55T A58G T59A,0.2
11,CAA G9T A14T C55T,0.5
12,CAA G9T A14T T19C T53C,0.25
13,GAA G9A G15A G17T T53A,0.25
14,GAA T8C A14C T19A A58C,0.4
15,GAA G9A G51A T59C,0.29
16,TAA G9T A14T A58T T59C,0.2
17,GAA G9T A33G A58C,0.83
18,GAA G15T G18T T19C A33G A58C,0.5
19,GAA G15C G22A A58C,0.33
20,GAA G15C T19A A20T G52T T54C C55A A58T T59C,0.25
21,TAA T8C A14G A20G A58T,0.4
22,CAA T8C G17C A58T,0.6
23,GAA G15A A20T G40A,0.4

# Variants of: B1
# Assay: tRNA 5' processing efficiency (processed reads / all reads, maximum-likelihood estimate) (fraction); higher = more efficient 5' processing
# Settings: HEK293T; construct: CMV Pol-II promoter ((+)CMV library, decapped)
row,Variant,tRNA 5' processing efficiency
1,CAA G15A T53A,0.33
